Patent publication US20070099214
At least one result comes from cells or an extract, where the contact may be indirect. Where a protein sequence is shown, tags need not be part of it.

What was measured:
[1] = target: T1, ABCA5 (PIN-1), native in HGPIN tissue extract (Homo sapiens) (UniProt Q8WWZ7); experiment: EMSA; conditions: crude extract ~5 ug, 1 ug poly(dI-dC); blocked by 20-50 ng unlabeled probe; protein in an extract; label: 32P
T1 sequence: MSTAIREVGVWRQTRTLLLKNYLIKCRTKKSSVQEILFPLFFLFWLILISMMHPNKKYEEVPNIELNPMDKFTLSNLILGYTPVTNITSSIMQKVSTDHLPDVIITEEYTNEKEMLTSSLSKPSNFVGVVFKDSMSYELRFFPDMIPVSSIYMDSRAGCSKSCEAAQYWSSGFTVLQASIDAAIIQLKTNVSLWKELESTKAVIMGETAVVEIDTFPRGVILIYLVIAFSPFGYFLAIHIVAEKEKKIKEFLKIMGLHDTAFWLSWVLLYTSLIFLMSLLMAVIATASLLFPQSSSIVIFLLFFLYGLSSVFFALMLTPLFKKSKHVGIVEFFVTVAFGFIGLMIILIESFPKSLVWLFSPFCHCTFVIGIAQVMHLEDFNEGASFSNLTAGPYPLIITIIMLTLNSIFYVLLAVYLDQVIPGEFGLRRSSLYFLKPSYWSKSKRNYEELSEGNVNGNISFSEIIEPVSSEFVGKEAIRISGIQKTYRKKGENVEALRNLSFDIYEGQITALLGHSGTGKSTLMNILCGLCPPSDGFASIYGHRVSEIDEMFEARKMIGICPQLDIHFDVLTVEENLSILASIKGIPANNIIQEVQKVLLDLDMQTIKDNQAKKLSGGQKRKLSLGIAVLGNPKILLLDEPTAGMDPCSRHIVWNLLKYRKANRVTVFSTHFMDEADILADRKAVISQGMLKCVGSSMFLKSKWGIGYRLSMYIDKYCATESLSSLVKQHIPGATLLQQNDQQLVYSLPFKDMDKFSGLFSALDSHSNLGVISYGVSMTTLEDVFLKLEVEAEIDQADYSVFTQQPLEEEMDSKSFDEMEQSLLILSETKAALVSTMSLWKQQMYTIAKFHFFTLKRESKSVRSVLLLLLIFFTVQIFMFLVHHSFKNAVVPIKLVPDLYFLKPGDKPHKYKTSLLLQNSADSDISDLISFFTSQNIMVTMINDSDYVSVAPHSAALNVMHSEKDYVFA

[2] = target: T2, ABCA5 (PIN-1), recombinant from lambda phage cDNA clones (Homo sapiens) (UniProt Q8WWZ7); experiment: EMSA; conditions: single band shift; blocked by unlabeled probe; wild-type phage host extract gave no shift; poly(dI-dC); protein in a lysate after overexpression; label: 32P
T2 sequence: T1 sequence

Question: Does “TCCAGCGA (double strand) [PIN-specific 8-mer duplex probe]” bind [1]?
Answer: binds

Question: Does “TCCAGCGA (double strand) [PIN-specific 8-mer duplex probe]” bind [2]?
Answer: binds
